Experimental findings from PubChem BioAssay AID2685 (National Center for Advancing Translational Sciences (NCATS), 2010) are described below.

The structures appear in SMILES notation. The list shows a part of the results. Further columns of the screen follow, without active or inactive calls. The list favours compounds with an active or inconclusive main result. Words in brackets tell the shape of the fitted curve; partial curves, single points and poor fits give uncertain potencies.

The experiment is described as follows: qHTS Assay for Lipid Storage Modulators in Drosophila S3 Cells.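 On cell number change: cells counted by Cell Tracker Red CMTPX staining in the red channel.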 The note with it: BODIPY lipid droplet fluorescence, 18-24 h; for cell number change: measured here: cell count max response, cells fed with added oleic acid. In outline:
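Laser-scanning cytometry quantifies lipid droplet accumulation (500–530 nm total intensity; droplet/cell object ratio) in oleic acid-fed (400 uM added) Drosophila S3 cells treated with a concentration series. 20 uM Triacsin C defined 100% inhibition.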
For orientation: qHTS replaces the single test concentration by a dilution series.

Where [1] appears, read: measured here: cell number channel AC50, cells fed with added oleic acid.
[2] abbreviates: measured here: lipid fluorescence (Fed channel) AC50, cells fed with added oleic acid.

`CC1CCN(C(=O)CN2C(=O)NC3(CCCc4ccccc43)C2=O)CC1` (centres undefined): the cell number change came to 162%. Further, the AC50 (commonly the midpoint of the concentration-response curve, whichever way the signal moves) under setting [1] was 29.1 µM [rising, single point]. In addition, the concentration at half-maximal activity (AC50) under setting [2] is 0.731 µM [rising, single point]. Take `Cc1nc2nc(-c3ccc(Cl)cc3)[nH]n2c(=O)c1Cc1ccccc1`: the AC50 under setting [2] is 0.517 µM [rising, single point]. On to `COc1ccc(C(=O)COC(=O)COc2ccc(C)c(C)c2)cc1`, for which the cell number change is -1.64%. In addition, the half-maximal activity concentration (AC50) under setting [2] is 18.4 µM [rising, single point]. With `OC(COCc1cccs1)CN1CCN(c2cccc(C(F)(F)F)c2)CC1` (centres undefined), the cell number change was -29.6%. On to `CCOC(=O)C(NC(C)=O)(N1CCOCC1)C(F)(F)F` (centres undefined), for which the cell number change was -15%. In addition, the AC50 under setting [2] is 2.59 µM [falling, partial curve]. `COc1ccc(C(=O)NC2CCSc3ccccc32)cc1` (centres undefined): the cell number change is 30.4%. In addition, the AC50 under setting [1] is 3.26 µM [rising, full curve, poor fit]. Further, the AC50 under setting [2] is 0.461 µM [rising, full curve, poor fit]. With `Cc1ccc(-c2ccccc2)n1-c1ccc(C(=O)O)cc1`, the cell number change came to 59.1%. For the same compound, the AC50 under setting [1] was 25.9 µM [rising, single point]. The AC50 under setting [2] was 4.61 µM [rising, full curve]. Regarding `Cc1cc(C)cc(NC(=O)CC23CC4CC(C2)CC(n2nnc(C)n2)(C4)C3)c1`, the cell number change is 2.2%. Further, the concentration at half-maximal activity (AC50) under setting [2] is 0.517 µM [falling, single point].

In the case of `O=C(Cn1ccc([N+](=O)[O-])n1)Nc1nccs1`, the cell number change is -4.23%. For the compound `COC(=O)c1ccc(NC(=O)c2ccc(F)cc2)o1`, the cell number change worked out at 14.6%.

With `CN(CC(=O)NCc1ccccn1)S(=O)(=O)c1ccc(F)cc1`, the cell number change was determined as 0.164%. Also, the AC50 under setting [2] was 0.291 µM [rising, full curve, poor fit].

In the case of `CCCCn1c(N)c(N(CC(C)C)C(=O)C2CSC3(C)CCC(=O)N23)c(=O)[nH]c1=O` (centres undefined), the cell number change was determined as 28%. `O=c1c2cc(Cl)ccc2[nH]c(=S)n1Cc1cccs1`: the cell number change worked out at 6.25%. Further, the half-maximal activity concentration (AC50) under setting [2] was 4.61 µM [rising, partial curve, poor fit]. On to `O=C(CSc1nnc(NC(=O)c2cccc(F)c2)s1)NC1CC1`, for which the cell number change came out at 17.5%. Further, the concentration at half-maximal activity (AC50) under setting [2] was 29.1 µM [rising, single point]. As for `COCCCNC(=O)c1sc2ncnc(N3CCc4ccccc4C3)c2c1C`, the cell number change is -39.9%. Also, the AC50 under setting [1] was 13 µM [falling, partial curve, poor fit]. In addition, the AC50 under setting [2] is 13 µM [falling, partial curve, poor fit]. In the case of `COc1ccc(CC(C)N2CCN(c3ccccc3)CC2)cc1OC` (centres undefined), the cell number change came out at 4.9%. Under setting [1], the AC50 is 0.651 µM [falling, full curve]. The concentration at half-maximal activity (AC50) under setting [2] was 0.651 µM [falling, full curve].

With `O=C(Cc1ccc(Cl)cc1)Nc1cccc(S(=O)(=O)N2CCCCC2)c1`, the cell number change is -17.5%.

Turning to `Cc1ccc(C(=O)N2C(=S)C(c3ccc(F)cc3)=NC23CCN(C)CC3)cc1`, the cell number change is -59.3%. Besides, the half-maximal activity concentration (AC50) under setting [1] was 29.1 µM [falling, single point]. For the same compound, under setting [2], the half-maximal activity concentration (AC50) was 29.1 µM [falling, single point]. With `O=C(NCC1CCCO1)c1nnc(Cc2ccc(F)cc2)o1` (centres undefined), the cell number change was -26.1%. For the same compound, the AC50 under setting [2] is 0.731 µM [falling, full curve, poor fit].

Take `CCc1ccc2[nH]c(=O)c(C(c3nnnn3CCOC)N3CCN(c4ccccc4)CC3)cc2c1` (centres undefined): the cell number change was -5.18%. The AC50 under setting [1] was 0.13 µM [falling, full curve, poor fit]. Regarding `CCOC(=O)C1CCCN(C(=O)c2sc3nc(-c4ccccc4)cn3c2C)C1` (centres undefined), the cell number change was -44.8%. Besides, the concentration at half-maximal activity (AC50) under setting [1] is 13 µM [falling, partial curve, poor fit]. The half-maximal activity concentration (AC50) under setting [2] was 0.0731 µM [falling, full curve, poor fit]. As for `Cc1ccc(N=c2c([N+](=O)[O-])nn(-c3ccccc3)n2O)c(C)c1`, the cell number change was -24.8%. For the same compound, the half-maximal activity concentration (AC50) under setting [2] is 2.31 µM [rising, partial curve]. In the case of `Cc1cc(C(C)(C)C)ccc1OCC(=O)N/N=C\c1c(C)n(C)n(-c2ccccc2)c1=O`, the cell number change was 33.3%.

In the case of `Cc1cc(C)c2cc(CN(CCCO)S(=O)(=O)c3ccccc3F)c(=O)[nH]c2c1`, the cell number change is -3.75%. As to `C=CCn1c(SCC(=O)Nc2ccc(C(=O)OC(C)C)cc2)nnc1-c1cccs1`, the cell number change was 9.87%. Besides, the AC50 under setting [2] is 3.66 µM [rising, partial curve]. On to `Cn1nc(C(F)(F)F)cc1-c1ccc(/C=C(\C#N)C(=O)c2ccccc2)s1`, for which the AC50 runs as follows: under setting [1], 0.0731 µM [falling, full curve, poor fit]; under setting [2], 0.0651 µM [falling, full curve, poor fit].

For `CCOC(=O)c1csc(NC(=O)CSc2nnnn2-c2cccc(OC)c2)n1`, the cell number change was -3.02%. In addition, the half-maximal activity concentration (AC50) under setting [2] was 0.231 µM [rising, full curve, poor fit]. For `O=C(CS(=O)(=O)Cc1ccccc1)NCCc1ccc(F)cc1`, the cell number change amounted to 13%. With `CC(=O)Cc1ccccc1OC(=O)c1ccco1`, the cell number change is 1.55%. Moreover, under setting [2], the concentration at half-maximal activity (AC50) was 3.26 µM [falling, full curve]. Take `COc1ccc(CN2C(=O)CNC2=S)cc1`: the cell number change turned out to be 19.6%. For `CCCCCCCCCCCCCCCC[n+]1cccc(C(=O)N(CC)CC)c1`, the cell number change is -81%. For the same compound, the concentration at half-maximal activity (AC50) under setting [1] was 18.4 µM [falling, partial curve]. For the same compound, under setting [2], the concentration at half-maximal activity (AC50) is 14.6 µM [falling, partial curve, poor fit]. As for `CC1(C(=O)CSc2ncn[nH]2)CCC(=O)O1` (centres undefined), the cell number change is -56.9%. In addition, under setting [1], the half-maximal activity concentration (AC50) was 7.31 µM [falling, partial curve]. For the same compound, the AC50 under setting [2] is 1.16 µM [falling, full curve]. For the compound `CCOCCOc1cccc(C(=O)NC(c2ccccc2)c2ccccc2)c1`, the cell number change was -2.2%. The AC50 under setting [2] is 14.6 µM [falling, single point]. `COc1ccc(-c2noc(CSc3nc(N)c(-c4ccccc4)c(=O)[nH]3)n2)cc1`: the concentration at half-maximal activity (AC50) is, setting by setting: under setting [1], 6.51 µM [falling, single point]; under setting [2], 0.146 µM [falling, full curve, poor fit]. As for `O=C(O)/C(=C\c1ccc(F)cc1)c1ccc(-c2ccccc2)cc1`, the cell number change is 11.1%. As for `Nc1nnc(CCC2CCCCC2)s1`, the cell number change turned out to be 8.57%. Besides, the half-maximal activity concentration (AC50) under setting [2] is 0.0058 µM [falling, full curve, poor fit].

As for `C(=C\c1ccccc1)/CSc1nnc(-c2ccccn2)n1Cc1ccco1`, the AC50 under setting [2] was 2.06 µM [rising, partial curve].

Turning to `Nc1ncc(Br)cc1S(=O)(=O)NCCC(=O)N1CCN(c2ccccc2)CC1`, the cell number change stood at 43.9%. Moreover, the half-maximal activity concentration (AC50) under setting [1] was 13 µM [rising, partial curve]. Further, the half-maximal activity concentration (AC50) under setting [2] is 9.2 µM [rising, partial curve].
